Experimental data as given in paper PMC9303266.
These are yes or no findings as the source states them, for the method shown. In cells and extracts the contact can be indirect. These calls come from enrichment with a bait or labelling near it, and not all partners need be listed. For part of these data: A no says only that the protein was not detected with the bait. Values belong to the molecule of their own block, whether it stands above or below them.

Protein sequences, listed by entry. Tags and fused reporters are not part of them. Residues count along the entry.
UniProt P27420, residues 18-661: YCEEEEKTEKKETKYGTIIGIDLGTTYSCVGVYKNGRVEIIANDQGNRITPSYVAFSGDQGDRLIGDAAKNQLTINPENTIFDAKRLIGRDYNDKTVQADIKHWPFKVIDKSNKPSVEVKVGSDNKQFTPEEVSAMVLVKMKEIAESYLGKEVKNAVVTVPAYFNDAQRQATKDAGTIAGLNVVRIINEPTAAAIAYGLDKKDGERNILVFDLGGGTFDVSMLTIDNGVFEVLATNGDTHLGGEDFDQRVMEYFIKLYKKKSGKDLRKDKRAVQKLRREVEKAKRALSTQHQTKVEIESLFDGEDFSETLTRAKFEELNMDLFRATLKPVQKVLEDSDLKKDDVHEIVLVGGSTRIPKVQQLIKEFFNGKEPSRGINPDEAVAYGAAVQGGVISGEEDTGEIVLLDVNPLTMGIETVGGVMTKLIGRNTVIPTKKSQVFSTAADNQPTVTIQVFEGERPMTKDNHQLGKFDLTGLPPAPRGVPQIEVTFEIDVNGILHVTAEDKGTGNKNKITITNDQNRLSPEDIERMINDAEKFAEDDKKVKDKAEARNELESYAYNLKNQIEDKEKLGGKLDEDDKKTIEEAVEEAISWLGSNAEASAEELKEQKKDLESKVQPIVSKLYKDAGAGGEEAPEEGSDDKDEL
UniProt P20163, residues 18-657: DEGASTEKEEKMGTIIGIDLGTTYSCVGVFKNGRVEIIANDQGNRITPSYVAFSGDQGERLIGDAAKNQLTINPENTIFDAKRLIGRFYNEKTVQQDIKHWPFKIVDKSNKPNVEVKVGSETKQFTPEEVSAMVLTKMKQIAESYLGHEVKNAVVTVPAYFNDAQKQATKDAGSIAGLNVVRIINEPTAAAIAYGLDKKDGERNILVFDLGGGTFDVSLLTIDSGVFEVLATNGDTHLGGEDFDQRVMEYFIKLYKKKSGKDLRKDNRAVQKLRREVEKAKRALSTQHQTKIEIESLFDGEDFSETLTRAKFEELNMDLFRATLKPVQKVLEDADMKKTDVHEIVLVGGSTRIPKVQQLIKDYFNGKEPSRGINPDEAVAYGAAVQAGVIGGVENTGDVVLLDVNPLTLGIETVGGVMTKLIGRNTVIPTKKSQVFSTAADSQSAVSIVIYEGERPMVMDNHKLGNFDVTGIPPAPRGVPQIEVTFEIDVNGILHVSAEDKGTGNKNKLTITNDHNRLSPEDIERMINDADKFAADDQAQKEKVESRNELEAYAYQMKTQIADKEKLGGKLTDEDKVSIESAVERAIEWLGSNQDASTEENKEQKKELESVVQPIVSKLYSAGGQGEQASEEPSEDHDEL
UniProt P11141, residues 28-657: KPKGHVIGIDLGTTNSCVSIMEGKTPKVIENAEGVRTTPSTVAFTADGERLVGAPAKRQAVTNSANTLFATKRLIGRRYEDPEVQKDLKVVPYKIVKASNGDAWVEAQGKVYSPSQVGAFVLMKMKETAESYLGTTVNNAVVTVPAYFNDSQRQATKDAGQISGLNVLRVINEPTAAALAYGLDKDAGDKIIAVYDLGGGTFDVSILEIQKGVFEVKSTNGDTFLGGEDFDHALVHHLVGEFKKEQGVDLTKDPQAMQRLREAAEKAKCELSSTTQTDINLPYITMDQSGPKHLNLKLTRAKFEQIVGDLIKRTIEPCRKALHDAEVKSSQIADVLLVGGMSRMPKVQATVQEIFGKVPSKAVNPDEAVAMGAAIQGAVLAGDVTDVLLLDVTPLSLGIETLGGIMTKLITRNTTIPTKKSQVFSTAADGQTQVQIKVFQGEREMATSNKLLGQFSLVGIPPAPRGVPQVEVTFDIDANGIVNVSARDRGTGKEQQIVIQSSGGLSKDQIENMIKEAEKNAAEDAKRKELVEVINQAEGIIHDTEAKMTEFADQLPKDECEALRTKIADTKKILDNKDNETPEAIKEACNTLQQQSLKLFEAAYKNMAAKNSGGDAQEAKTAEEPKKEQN
UniProt P28548: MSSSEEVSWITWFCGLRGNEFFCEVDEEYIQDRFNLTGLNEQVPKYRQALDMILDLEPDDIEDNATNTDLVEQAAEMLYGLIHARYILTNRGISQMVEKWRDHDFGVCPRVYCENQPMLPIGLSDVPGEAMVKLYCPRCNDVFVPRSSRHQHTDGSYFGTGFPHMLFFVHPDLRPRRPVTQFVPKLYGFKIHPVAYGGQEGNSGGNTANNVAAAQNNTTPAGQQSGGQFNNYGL
UniProt A0A0K3AUJ9: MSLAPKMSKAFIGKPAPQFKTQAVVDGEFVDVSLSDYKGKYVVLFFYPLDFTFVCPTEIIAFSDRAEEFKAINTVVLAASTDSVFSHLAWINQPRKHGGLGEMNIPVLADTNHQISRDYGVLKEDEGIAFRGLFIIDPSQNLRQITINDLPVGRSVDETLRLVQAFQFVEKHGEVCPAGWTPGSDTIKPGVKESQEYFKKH
UniProt Q10013: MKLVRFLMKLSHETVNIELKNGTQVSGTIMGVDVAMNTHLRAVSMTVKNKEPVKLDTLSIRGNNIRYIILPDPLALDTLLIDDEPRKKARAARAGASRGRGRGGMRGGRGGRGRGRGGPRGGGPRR
UniProt Q18786: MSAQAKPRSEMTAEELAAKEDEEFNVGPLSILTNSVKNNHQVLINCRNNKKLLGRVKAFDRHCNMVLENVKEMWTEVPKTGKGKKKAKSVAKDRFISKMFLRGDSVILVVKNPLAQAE
UniProt P34659: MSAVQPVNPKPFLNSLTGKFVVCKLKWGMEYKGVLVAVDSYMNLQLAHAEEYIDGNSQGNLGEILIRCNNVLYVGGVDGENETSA
UniProt O17921: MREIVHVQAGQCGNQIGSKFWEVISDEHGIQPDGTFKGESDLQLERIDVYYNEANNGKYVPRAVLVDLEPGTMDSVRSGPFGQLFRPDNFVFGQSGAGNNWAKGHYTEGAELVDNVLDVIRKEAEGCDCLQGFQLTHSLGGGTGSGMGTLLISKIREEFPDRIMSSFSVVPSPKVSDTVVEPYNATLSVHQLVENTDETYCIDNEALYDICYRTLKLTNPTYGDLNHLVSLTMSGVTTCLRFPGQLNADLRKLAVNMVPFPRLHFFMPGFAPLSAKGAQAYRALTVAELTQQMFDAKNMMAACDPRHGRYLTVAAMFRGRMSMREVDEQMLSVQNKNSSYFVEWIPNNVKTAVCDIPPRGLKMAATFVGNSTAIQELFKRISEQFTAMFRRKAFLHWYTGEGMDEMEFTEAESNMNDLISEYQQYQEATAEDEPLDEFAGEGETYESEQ

What was measured:
[1] = biological target: GFP::SNA-1 (C. elegans (endogenous in embryo extract)) (UniProt O45149); assay: condition: only extract pre-treated with RNase A and RNase T1; affinity purification with mass spectrometry; as a1, but the PE906 embryo extract was pre-treated with 200 units/ml RNase T1 and 5 units/ml RNase A for 1 h at 4°C before the immunoprecipitation
[2] = biological target: GFP::SNA-1 (C. elegans (endogenous in embryo extract)) (UniProt O45149); assay: affinity purification with mass spectrometry; GFP::SNA-1 precipitated from PE906 embryo extract with anti-GFP nanobody agarose beads (GFP-Trap) against control agarose beads, triplicates, 1 h at 4°C; label-free LC-MS/MS (MaxQuant, Perseus; FDR < 0.01, S0 2.5); extract not treated with RNase
[3] = biological target: SNA-3::GFP (C. elegans (endogenous in embryo extract)) (UniProt Q9GYR5); assay: affinity purification with mass spectrometry; SNA-3::GFP precipitated from PE975 embryo extract with anti-GFP nanobody agarose beads against control agarose beads, triplicates; label-free LC-MS/MS; extract not treated with RNase
[4] = biological target: GFP::SNA-1 (C. elegans (endogenous in embryo extract)) (UniProt O45149); assay: affinity purification with mass spectrometry; GFP::SNA-1 precipitated from PE906 embryo extract with anti-GFP nanobody agarose beads (GFP-Trap) against control agarose beads, triplicates, 1 h at 4°C; label-free LC-MS/MS (MaxQuant, Perseus; FDR < 0.01, S0 2.5); extract not treated with RNase; remark: listed apart in the source
[5] = biological target: SNA-3::GFP (C. elegans (endogenous in embryo extract)) (UniProt Q9GYR5); assay: condition: only extract pre-treated with RNase A/T1; affinity purification with mass spectrometry; as a3, but the PE975 embryo extract was pre-treated with RNase A/T1 before the immunoprecipitation

binding [1]: no binding | binding [2]: binds
Molecule: HSP-3 (from UniProt P27420 18-661)

binding [1]: no binding | binding [2]: binds
Molecule: HSP-4 (from UniProt P20163 18-657)

binding [1]: no binding | binding [2]: binds
Molecule: HSP-6 (from UniProt P11141 28-657)

binding [1]: no binding | binding [2]: binds
Molecule: KIN-10 (from UniProt P28548 1-234)

binding [1]: no binding | binding [2]: binds
Molecule: PRDX-2 (from UniProt A0A0K3AUJ9 1-201)

binding [1]: no binding | binding [2]: binds
Molecule: SNR-3 (from UniProt Q10013 1-126)

binding [1]: no binding | binding [2]: binds
Molecule: SNR-4 (from UniProt Q18786 1-118)

binding [1]: no binding | binding [2]: binds
Molecule: SNR-5 (from UniProt P34659 1-85)

binding [1]: no binding | binding [2]: binds
Molecule: TBA-7 (from UniProt O18154)

binding [1]: no binding | binding [2]: binds
Molecule: TBB-1 (from UniProt O17921 1-449)

binding [1]: no binding | binding [2]: binds
Molecule: TBB-2 (from UniProt P52275 1-450)

binding [3]: binds
B1: MTR-4 (enzyme, UniProt Q23223 1-1026)
chain: MADLFDEFIEPGVKNEIMDVEEAPENPMEKLDSAKKRQAREDMTNLLANMHNDVGVGNFDEATSKRARVEEEEEVEEARMENIIVHTIRTDNENCTHEVAIPPNAEFAELRENSGTEPAKYYPFQLDAFQKQAILCIDNNQSVLVSAHTSAGKTVVATYAIAKCLREKQRVIYTSPIKALSNQKYRELEEEFKDVGLMTGDVTLNPDASCLVMTTEILRSMLYRGSEIMKEVGWVVYDEIHYMRDKERGVVWEETIILMSKNIKQAFLSATIPNARQFAQWVASIKQQPVNVVYTDYRPTPLQHWIYPVGGEGMYEVVNVKGEFREDKFRDAMSGLATAGDSAGSFNKRRTGGGTQGDSNVLKIIRSVASNDGLNCIVFSFSRKECESYAISLKDMDFNKDHEKGMVKSVYESAIAQLSPEDQKLPQILNILPLLRRGIGVHHSGLMPILKETIEILFGEGLVKVLFATETFSMGLNMPARTVVFTSARKFDGSDNRYITSGEYIQMAGRAGRRGKDDRGTVILMVDSAMSADDAKQIIKGATDPLNSQFRLTYNMVLNLMRVEGMAVSWIINNSFHQFQSYAKIPEIDKKCVQVERKIASFNFPWENEMRTLVDLQDQLEATRQRIIQIQREPKYIVGFLHAGRLFKVKSGDRDFKWGILNQFKKEQNPDDRNDQIYLCDMMIAINTEGRFDPTNPATLVPGFDLPKRRWIRVPMTIDRITAISAVRLKVPADIDKPDGQMRLDGMMAAATKRFGNQIPLLDPIQDMEIKTVEMKELIAREKSLEGRLETHSMTKRDNMKDLKKQFEQKQDAVKELNALKAERKSVQSTLHLEELNNRKRVLRRLGYLGNDDALVLKGSVACELSASDELILTEMLLKGIFNTLDVAQTAALLSCFVFQDKCAAPKLATELQTCLSELHEQARNVAKVSNECKMEVMEDKYVSSFNPGLMDVVYQWVNGATFSEIVKTTDVFEGSIIRTLRRLEEVLREMINAAKALANKELEQKFEDARKNLKRDIVFAASLYL

binding [1]: no binding | binding [4]: binds
B2: TBH-1 (enzyme, UniProt Q9XTQ6 1-657)
chain: MEPTASQGIQYLRGGVEWILKLLNLHILNVKHENKPLLFRLIDLKVYIPSSVSTVRWSSGASSYVILGEYRKMRSAVALLFLLVAYCGGVVHAGEIVAELYHTNVTVKWHTDYERQLVDFSIWFGASTPDVLFLGFSDFGDTNNSDVLMYYNSKKEIKDAYTNRDFKITSDLQQDFQLLRKRKDHIVVRRKLTTCDSRDYAFLPGTTQFYIAASWGSTNLVDIRDKRWVVDKKFGKVIEGPTDQPNIEEEPAALEKDVKVVIVNSNSPDPIPNVETTYKCIIRKMPFDTVNNMYHVVRMEPYVTPGNEHLVHHMEIFMCRDEVEEWSGSCNDPKKPPKSKSCSHVIAAWAMGEGPIHYPKEAGLPIGGKGKNAYVMVEIHYNNPELHKGVIDSSGFQFFVTGQLRKYDAGIMELGLIYSDANSVPPNQKAWAMNGYCPSQCTKNLPEEGINIFASQLHAHLTGRKLFTSQYRSGVRIGDVNRDEHYSPHWQHLQQLRPVVKVMPGDTLVTTCVYDTRKRSKVTFGGYRIVDEMCVNYIYYYPASDVEVCKSAISNSTLRAYFSERHGMDGKRMQISDMYSNVKDWGNGVDEEFYNVLNVGNMNMNCLKSNGEPFEFESKDSRQSWENMARPTFVSGSFITTRDRFQCPAINDMINFE

binding [1]: no binding | binding [4]: binds
B3: PRP-19 (protein, UniProt Q10051 1-492)
chain: MSFVCGISGELTEDPVVSQVSGHIFDRRLIVKFIAENGTDPISHGELSEDQLVSLKSGGTGSAPRNVSGTSIPSLLKMLQDEWDTVMLNSFSLRQQLQIARQELSHSLYQHDAACRVISRLSKELTAAREALSTLKPHTSAKVDDDVSIDESEDQQGLSEAILAKLEEKSKSLTAERKQRGKNLPEGLAKTEELAELKQTASHTGIHSTGTPGITALDIKGNLSLTGGIDKTVVLYDYEKEQVMQTFKGHNKKINAVVLHPDNITAISASADSHIRVWSATDSSSKAIIDVHQAPVTDISLNASGDYILSASDDSYWAFSDIRSGKSLCKVSVEPGSQIAVHSIEFHPDGLIFGTGAADAVVKIWDLKNQTVAAAFPGHTAAVRSIAFSENGYYLATGSEDGEVKLWDLRKLKNLKTFANEEKQPINSLSFDMTGTFLGIGGQKVQVLHVKSWSEVVSLSDHSGPVTGVRFGENARSLVTCSLDKSLRVFSF

binding [1]: no binding | binding [4]: binds
B4: SNR-1 (protein, UniProt Q17348 1-136)
chain: MTSVGVPIKILHEAEGHMVTLETVTGEVYRGKLSEAEDNMNCQLAETVVTFRDGRSHQLDNVFIRGNKIRFMILPDMLKNAPMFKNIGRAQKGAIGMGLGGLDQRGRGRGTAFRRPMGRGGPRGMSRPGGAPTFRG

binding [3]: binds weakly
B5: NCBP-2 (protein, UniProt Q93594 1-158)
chain: MVFDPRTLDNPKEISAYRDQRYQGTVRDQETALRTSCTLYVGNLSYYTKEDQVYELFGRAGDVRRVIMGLDRFKKTPCGFCFVEYYTREDAELALQNISNTRMDDRVIRADWDAGFIEGRQYGRGKHGGQVRDEYRKDYDPERGGYNRAIAQKGGDRQ

binding [1]: no binding | binding [4]: binds
B6: SNR-6 (protein, UniProt Q9XTU6 1-90)
chain: MSTRKLNKVMVQPVNLIFRYLQNRTRVQIWLYEDVTHRLEGYIIGFDEFMNVVFDEAEEVNMKTKGRNKIGRILLKGDNITLIHAAQQEA

binding [5]: no binding | binding [3]: binds | binding [4]: no binding
B7: NCBP-1 (protein, UniProt O01763 1-798)
chain: MSRRRQFDDEDEVQMKRRRGAPLIEDVEKKLQGVIGKVGENTGSSIECNLDKLTAFLHDDLEKYRASIIDIIAGCAIYLPNRVTVYTTLVGLLNSKNFNFGGDVVEKLISEQQDLLSKQKYQEAQNLAIFLCDLGNSGVLTAQSIGEYLESFIAAAFEENMPQVRNDYYIQTVLRCLPWIGKELTEKAPEQMENIGEAIGKYLELRNKNHVALLQVWREGSTDQKQEDYLESLSAQIEALRNADWVENHIPRHYSGFETTLQDALQHNLPSFQSPEHTSDMIYPYPLVVFRLFQDADCSAFSSKPLPGDSSIDRFLFEGEIAWIIEKNQFNRKACARELLAFAEENPSVPIGFLIFETIFGQMLRLPHAPYPAIFHCSLVLELLKLKPDDYPQILVQTVECIYRRADSMQPVCIDRMVDWFSFHLSNFQYRYTWTDWKDCLNKDAFSGSQIFVREVIEKCRRFGSYEKIIAALPQDFVKIHPCSPEVRYLIDEEDTALVQRAETFTQMFQERQPAEAFLNELKSNDENDELPYNINEFGLFVMVMLKMASKTYSHNFSALFRYQTTLKTVCDASELYQEKLLETLYSCWKTNQQMLMILTDKLLKMQVIDCSAVVGWLFDEKMWQEHDRQWLFEVLNQALEKLTRQINVVEKDIKELTEKTENKIKEEDDEESDIKMDEDETKEEKFKQDLEDLENNKEKLERMVTFQKGLFNDFLIAFIEEIKNAATSNTSEMDGSGDTPGTQTPKFMWLRGRFCHVLLAHAETLLKHSSNIADEVFSEGTDPSIIECFNQFQSLRL

binding [1]: no binding | binding [4]: binds
B8: SNR-7 (protein, UniProt Q9N4G9 1-77)
chain: MSKTHPPELKKYMDKEMDLKLNGNRRVSGILRGFDPFMNMVIDEAVEYQKDGGSVNLGMTVIRGNSVVIMEPKERIS

binding [5]: no binding | binding [3]: binds
B9: F54C8.4 (enzyme, UniProt P34442 1-359)
chain: MVRVCRVVPKDWSKFQPVGNVIPRTRFIVFKTPINSQLSTKIHKEQRFTTNDLFRQLSERGQYLGLVVDLSDTDRYYDKKDITGMCVQYEKVNCPGRGFIERDDCVESFHQVIQDYTDKCDDPDALIGVHCTNGINRCGYLICRFLIDRLGWSSHEAIDAFEQARGYSIEKGAYVMALHKAAKDKRDKQVDSDSDSSERQRKKKNKRKHREIVEHENIVLINTIIGELGSQAASVSGTDYQNSPNGVSVDPGQPQPHHWGFAIKRSKYAQLNQPVANGANTPPEPSEGTPQEEEEFEEDFEEIEEETETEPGKGQSVSSKRRARRNRMQKYMQVMQRGRFHEIQAIREEVALSHGSARD
